Source: the supplement of paper PMC3334620
The full ranking holds about 33,000 sequences; the median of “E-score (-0.5 to 0.5)” is about -0.0034, and the highest 2% start at about 0.25. The list shows a part of the results.

What follows are sequences tested against T1, Yap3 (UniProt P38749) (assay: PBM E-score (8-mer binding enrichment) (E-score (-0.5 to 0.5)); higher = stronger / more preferred TF binding). Conditions: protein concentration: 100 nM; construct: GST-full length.
T1 sequence: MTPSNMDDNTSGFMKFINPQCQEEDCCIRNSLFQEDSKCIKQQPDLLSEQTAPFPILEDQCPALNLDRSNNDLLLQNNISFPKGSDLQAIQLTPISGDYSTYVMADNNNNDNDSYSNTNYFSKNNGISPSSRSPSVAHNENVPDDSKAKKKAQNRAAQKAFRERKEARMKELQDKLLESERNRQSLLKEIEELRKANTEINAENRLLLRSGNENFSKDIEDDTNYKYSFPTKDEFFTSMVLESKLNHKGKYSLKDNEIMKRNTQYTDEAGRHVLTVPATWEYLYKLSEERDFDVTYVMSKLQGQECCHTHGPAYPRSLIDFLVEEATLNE
In short: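 E-scores (a modified Wilcoxon-Mann-Whitney statistic) were assigned by the Universal PBM Analysis Suite to every ungapped eight-base word pooled with its reverse complement. The input came from universal all-10-mer Agilent arrays made double-stranded by primer extension and probed with GST-tagged yeast transcription factors at about 100-200 nM. Fluorescent anti-GST detected bound protein, and masliner normalised the scans.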

Sequence	PBM E-score
ATGCTTGA	0.0303
CTATGAAC	0.0589
GAAGGCTA	-0.072
AGTAGTCA	-0.0313
CGGATCCA	0.13
GCTGAAAA	0.0826
AACACCAC	-0.0171
GGGTATCA	0.0467
ATCCGATA	0.0883
AAGTACAA	0.0986
CACGACAA	0.0588
CTCCCCTC	-0.147
AGGTTTAC	-0.0291
AGAGGACT	-0.225
GACGTGTA	-0.148
AACACGAA	0.21
AAGATGCG	0.143
CTCCCGGA	-0.225
CTCTTTTC	0.135
CTGAGAAA	0.0446
ACTCGCCC	-0.263
CCAACCTC	-0.0133
GGCTCAAA	-0.112
CAAGGATG	-0.0177
AGACCAAC	-0.0269

Sequence	PBM E-score
AAGAGCTA	0.0659
CTTGGCGA	-0.273
GCGATCAC	-0.123
AAAAATAT	0.342
AAGAAACC	0.106
ACACGTTC	0.0858
TGACATCA	0.148
AGCCATTA	0.0318
GTCAGCAA	0.154
ACCATCGA	-0.0152
AATGCCGG	0.0525
TAATTAGA	0.291
CTAAAGTC	-0.258
TATAACCA	0.269
ACTATTAC	0.149
CCTGGAGC	-0.069
CATAGGCC	-0.0909
GTTGCAAC	0.00267
CTACATAA	-0.0287
TAAGCGAA	0.0803
AATCTTGC	0.0407
ACATTTGA	0.122
ACGGCCGG	-0.101
GGCCGGAC	-0.248
CGGGTGAA	0.0475

Sequence	PBM E-score
GCCAGCTA	-0.143
GAGAGAAA	0.0853
CCCGCGCG	0.154
GCTATTCA	0.0483
GGACCCAA	-0.179
TAACCGTA	0.0268
CGTCGCCA	0.00175
CTGCCTAC	-0.014
AGTCCGGG	-0.235
ATCCAGGG	-0.216
GCTTTAAC	0.191
ATAAATTG	0.312
ATTGATTG	0.216
AAAACGTA	0.141
CGTTCACC	0.0464
CGTGAACG	-0.189
CCATTCCC	-0.198
ACGCTATG	-0.086
CTAGGATA	-0.00481
GACTTTGC	0.112
GACGGATC	-0.0135
AATACGTG	0.0823
AGTATCTC	-0.00928
AAAACATA	0.181
GGATGAAC	-0.0771

Sequence	PBM E-score
CCGATCAA	-0.154
ACCAAGCG	-0.0737
CCCTAAAA	-0.104
GTCGGCCA	-0.279
ACATCCAA	0.0991
GTCCTCCA	-0.0436
GTTTATTA	0.268
AACGGACT	-0.0722
ACGGCACA	-0.0246
ATCGGAAG	0.122
TAATAGTA	0.142
CCTAGGAG	-0.234
GGGCGGAA	0.0193
CAATACAA	0.187
GGTGCCTA	-0.0752
CACATTTC	0.193
CGCACAAG	-0.0438
CAGAGCTA	-0.267
AAAAGATT	0.0254
CTTAGCCA	0.0218
CGGGTACG	-0.222
CTCAGTGC	-0.113
CAGGGAGC	-0.291
GAGGAGAA	-0.161
CATAACTA	0.0481

Sequence	PBM E-score
CCAATTAG	0.177
ATGGGACC	0.0297
CCAGACTA	0.00653
TACATGTA	0.255
CCCCCCAC	-0.408
AGTAACAC	0.142
CTCGGGAA	-0.109
CTAGCGCA	-0.0636
ACAGAAGG	-0.183
CTTGAGTA	0.0459
CTAGTAAG	0.0701
ATCTAATC	0.191
CAGGCAGC	-0.0913
AGATCATC	-0.0984
ATTTATAA	0.273
ACGCTACT	0.00361
AGAGCTAA	-0.0705
ACGAAGAG	0.0812
ACCCAACA	-0.0413
CTTGATTC	0.0825
AAGGAGAA	0.161
ATACTCTG	0.139
ATAGTTGA	0.161
CCGGATGC	-0.266
ATGCAAGC	0.0334

A different layout for some results above.
CCAATTAG
  PBM E-score = 0.177
CTCGGGAA
  PBM E-score = -0.109
ATCTAATC
  PBM E-score = 0.191
ATTTATAA
  PBM E-score = 0.273

Carrying on.

Sequence	PBM E-score
ATTGTTGA	0.173
AAGTAGTG	0.0834
ATAACACA	0.273
AGTCAGAA	-0.0212
CTGGCAAC	-0.0706
TATCTAGA	0.00566
GGTAGCAA	-0.0982
AGTTAGAC	-0.0213
ATAGATCA	0.112
ACAGCCTG	0.0194
CGGCACAC	-0.098
CATGATGG	-0.0998
CATCGGCC	-0.236
CATATTGC	-0.121
GAAGCAGC	-0.245
AGGTAGCC	-0.22
GTACATCA	0.142
TAAATTCA	0.0231
CCACCAGA	-0.0626
AGCTGCCT	-0.243
ATCGAATA	0.0665
TCATATAA	0.203
CCTTGGGC	-0.215
AGCTTTAG	-0.117
GGGAGAGA	-0.229

Sequence	PBM E-score
CTCTAGAA	-0.214
GTATGCAA	-0.0479
GAATTGGC	-0.0653
ATAAACAT	0.141
TAACCTAA	0.0921
CTCACCAC	-0.125
CTGAAGAA	-0.171
CAATCCAC	0.0675
TAAGCTGA	0.167
ACCGTGTA	0.101
AACCGGTA	-0.00429
GAACGTGC	-0.087
ACGTCGAG	-0.0705
GAGAGTGC	-0.0944
ACTAATTG	0.167
ATATGAGA	0.196
CCCATTAG	-0.352
GGCAAACA	-0.00268
CCAGATCC	-0.208
CGTGCAAA	0.0797
GTCGAAGA	0.00823
ACGGTCCG	-0.21
GGGCACAA	-0.0472
AACAACTC	-0.104
CGCCCTAC	-0.209

Sequence	PBM E-score
GCGTGTAA	0.00589
CGACGTAC	0.0214
CGTAGACG	-0.167
TCAGTAAA	0.162
CCTCATAC	0.0888
GCAAAAAC	0.212
AGGCCATG	0.0929
ACCTATAG	-0.0775
CTCAAGAC	-0.133
CATCTCCC	-0.0212
CGTCCCAA	-0.0512
CGCCGCGA	0.0437
GTTAACTA	0.23
CTCACCCC	-0.166
AACAAACC	0.0806
CGACTGCA	0.0353
AACCGACT	-0.0737
ACAGATGC	-0.17
AGTGACTA	-0.0718
CCGTCTAA	-0.0668
CTGTAAGA	-0.0157
AAAATTAC	0.273
CAGTTCAG	-0.0576
ATGGCCAC	-0.211
TAAGAGGA	0.0927

Sequence	PBM E-score
ATGAAAAT	0.209
GTTGAAAA	0.0707
AAGGCGAG	-0.117
GAGCACCC	-0.251
CAAGTCAC	-0.0278
GGGGATAC	-0.0513
ACAGTTTA	-0.0823
CAGATTTC	0.0398
GCGCACAC	0.1
CGCAACGC	-0.0681
AGTCTGGA	0.00286
GCTTCCTA	0.0545
AACAAACG	0.065
CCTCGATA	0.109
TTAGGGAA	0.0652
CAGAGAAC	-0.0475
AGGCACGA	-0.14
ATGAAAGC	0.223
GCGGTCCC	-0.25
TCTCTACA	0.1
GTTTCACA	0.145
CGTTGGAG	-0.153
GGCTTTCA	-0.0147
CCTAGAGC	-0.161
CACGCCTA	-0.1

Sequence	PBM E-score
CGGATTAC	0.116
AATGAAGG	-0.0122
AGTCAAAG	-0.0737
ACGCACAA	0.119
ACGTGCCC	0.0295
GCCGCCCA	-0.117
GACTGCCA	0.103
AGACTTCC	-0.161
GATCATAC	0.0631
AGGAATGG	0.00696
AATACACC	0.272
CGACCTAG	0.0835
TCGCTTCA	0.0146
GGCAGACA	-0.0641
GCCCCAAA	-0.153
GCGCTTCC	0.00479
GCTTGAAA	0.106
ATAACGTC	0.0456
ACCGCAAG	-0.0158
CTTTGTCA	0.15
ATGTTCGA	-0.0713
ATTGACTC	-0.0472
AGCATAAC	0.0172
GCTCGGTA	-0.0865
TACGGATA	0.0129

Sequence	PBM E-score
GTCAGGGA	-0.177
ACTTTATA	0.259
CAGGGTGG	-0.191
CTGTTGAC	0.0345
ACATGTGA	-0.0311
CGACTGGC	-0.207
ATACAAGC	0.119
ATCTGAGA	-0.0652
CACATATC	0.0834
ATTCTACC	0.0648
GATGACCA	0.0306
ACGTCCTC	-0.0516
AGATACGC	-0.00087
CAAAATAA	0.296
ACGTAAAG	0.184
AAACGACA	0.0941
AGTATTGA	0.147
CCTCTGCG	-0.264
CTCCACCC	-0.336
ACATATAG	0.171
AAGGAACT	0.0541
TGTGAAAA	0.0986
CGAATTGA	-0.0283
GATTGCAC	0.102
AAGATGGT	-0.0188

Sequence	PBM E-score
ACAGGACT	-0.203
GATCAGGA	-0.0582
GATAGATA	0.0286
GTCGCTCA	-0.0962
CTCAGCCC	-0.339
AAGGCGGG	-0.215
AGCTACGA	-0.0214
CATTCTCC	0.0344
ACGATGTG	0.0904
TCCTTCAA	0.026
TCCATCCA	-0.0216
CGCGTGTA	-0.0565
CGATTTTC	0.206
ACGCGTCG	0.12
AGATCTGA	-0.0273
CCTAGTCC	-0.216
TCTGTACA	0.106
TGGACAAA	0.125
CCGTTTCG	-0.0506
AATTCGAC	-0.194
ACAGTTCG	0.149
CGCACCGA	-0.0113
GATATCAC	0.0808
CGTTGCAC	-0.0748
CCACTGAC	-0.273

Some of the entries so far, bar-delimited.
Sequence | PBM E-score
ACGATGTG | 0.0904
TCCTTCAA | 0.026
TCCATCCA | -0.0216

(next part)

Sequence	PBM E-score
ACTATTTC	0.224
ACCCCCCG	-0.355
GACTAGTA	0.0783
TTTGAAAA	0.19
ATTTATTA	0.277
ATCTCCAT	0.0721
AATTTGAG	0.0737
GGACTGAC	-0.133
AATCAGAA	0.0468
CACTGTCG	-0.0928
GGCCAGCC	-0.242
CGAAGGAC	-0.243
ACAAGCTC	-0.076
AACCGGGG	-0.287
AACACCGG	0.00908
CGAGGCGC	-0.0513
AGGGGTAA	-0.0593
CGACGCGC	0.039
TATCATAA	0.196
CGAACCGC	0.0385
ATCGAGAG	-0.0157
AGTGAGCA	-0.0394
AATGACGC	-0.00212
GACGCGCA	0.0727
TACGATGA	0.0047

A different layout for part of the listing above.
Sequence,PBM E-score
CTCACCCC,-0.166
AACAAACC,0.0806
CGACTGCA,0.0353

Remaining list, next part:

Sequence	PBM E-score
ACCCTACC	-0.0075
CTTGTGCA	0.0949
AGAGCGTA	-0.0491
CTCTGGGC	-0.0869
GCCTTAAC	-0.0294
CCTGTAGC	-0.261
AAGCTGCC	-0.0817
AATCCTCA	-0.0611
CAAAACTA	0.223
GACGCACC	-0.0373
CGCTATCA	0.102
CAACCGTA	-0.204
AAATAGCG	0.175
GGATCGAA	-0.113
CCGTTTTC	0.117
CCCCTGTC	-0.308
ATAATATG	0.307
AGGCCTAA	0.0865
ACACCTTG	-0.0357
